We go through six molecules from article PMC3305383.

Sequences of proteins named here, by UniProt entry; tags and fusion partners are left off.
UniProt Q61466: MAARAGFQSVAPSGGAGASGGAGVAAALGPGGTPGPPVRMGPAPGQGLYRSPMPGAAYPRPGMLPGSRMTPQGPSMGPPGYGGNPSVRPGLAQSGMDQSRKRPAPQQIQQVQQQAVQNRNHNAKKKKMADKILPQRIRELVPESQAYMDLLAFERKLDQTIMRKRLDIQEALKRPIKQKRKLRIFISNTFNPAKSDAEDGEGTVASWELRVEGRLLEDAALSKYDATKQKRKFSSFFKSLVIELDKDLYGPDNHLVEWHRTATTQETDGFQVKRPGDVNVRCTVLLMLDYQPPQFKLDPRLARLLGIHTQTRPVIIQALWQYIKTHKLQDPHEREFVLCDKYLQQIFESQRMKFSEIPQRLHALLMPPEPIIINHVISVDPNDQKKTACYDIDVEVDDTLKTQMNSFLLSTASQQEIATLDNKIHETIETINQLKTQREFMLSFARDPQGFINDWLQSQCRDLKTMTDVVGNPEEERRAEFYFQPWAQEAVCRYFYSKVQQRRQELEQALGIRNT
UniProt Q6P9Z1: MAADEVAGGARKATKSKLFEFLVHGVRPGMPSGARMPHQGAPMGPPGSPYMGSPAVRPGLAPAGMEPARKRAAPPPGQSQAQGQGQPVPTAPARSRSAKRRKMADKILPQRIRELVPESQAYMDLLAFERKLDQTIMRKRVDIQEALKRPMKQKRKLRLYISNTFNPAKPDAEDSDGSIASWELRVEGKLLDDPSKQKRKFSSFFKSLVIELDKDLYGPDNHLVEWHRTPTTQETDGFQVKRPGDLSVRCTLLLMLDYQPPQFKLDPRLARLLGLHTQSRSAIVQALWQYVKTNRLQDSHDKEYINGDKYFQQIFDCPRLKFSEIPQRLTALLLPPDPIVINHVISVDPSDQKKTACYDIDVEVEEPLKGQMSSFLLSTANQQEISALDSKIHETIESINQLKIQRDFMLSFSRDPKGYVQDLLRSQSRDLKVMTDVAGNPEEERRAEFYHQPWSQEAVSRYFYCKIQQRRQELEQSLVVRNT
UniProt P97496: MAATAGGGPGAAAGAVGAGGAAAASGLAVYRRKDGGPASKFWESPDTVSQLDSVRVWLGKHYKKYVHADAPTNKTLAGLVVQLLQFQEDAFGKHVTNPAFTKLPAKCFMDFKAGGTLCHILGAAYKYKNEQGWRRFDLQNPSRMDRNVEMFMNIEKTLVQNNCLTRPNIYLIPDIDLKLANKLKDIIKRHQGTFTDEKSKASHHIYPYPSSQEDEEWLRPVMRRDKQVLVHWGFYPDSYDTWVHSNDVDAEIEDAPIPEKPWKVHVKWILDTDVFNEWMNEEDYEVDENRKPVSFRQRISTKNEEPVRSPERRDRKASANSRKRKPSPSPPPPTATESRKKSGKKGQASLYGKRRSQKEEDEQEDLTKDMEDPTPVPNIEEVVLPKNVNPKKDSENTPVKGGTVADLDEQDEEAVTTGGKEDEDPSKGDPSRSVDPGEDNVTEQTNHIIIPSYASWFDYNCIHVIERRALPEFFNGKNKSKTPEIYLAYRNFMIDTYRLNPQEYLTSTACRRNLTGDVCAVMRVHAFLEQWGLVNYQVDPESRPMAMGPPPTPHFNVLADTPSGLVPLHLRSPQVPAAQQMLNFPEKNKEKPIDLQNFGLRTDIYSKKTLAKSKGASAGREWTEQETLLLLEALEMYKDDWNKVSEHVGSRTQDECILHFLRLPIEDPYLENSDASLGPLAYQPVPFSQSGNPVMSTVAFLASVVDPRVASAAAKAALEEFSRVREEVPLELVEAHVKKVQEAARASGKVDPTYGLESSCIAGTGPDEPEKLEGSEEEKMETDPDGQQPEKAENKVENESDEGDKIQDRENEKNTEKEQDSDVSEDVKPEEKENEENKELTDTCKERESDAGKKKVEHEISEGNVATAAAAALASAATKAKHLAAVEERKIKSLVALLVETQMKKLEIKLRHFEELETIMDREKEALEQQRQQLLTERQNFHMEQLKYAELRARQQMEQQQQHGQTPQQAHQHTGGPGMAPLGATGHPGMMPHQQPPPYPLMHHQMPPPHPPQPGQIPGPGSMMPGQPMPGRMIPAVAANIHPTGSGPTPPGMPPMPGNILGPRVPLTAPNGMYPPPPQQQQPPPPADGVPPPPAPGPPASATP

These are yes or no findings as the source states them, for the method shown. For some of these results: Binding seen in cells or lysates may run through a third protein. Some binding calls cover weakened binding; strength is not graded here. For some of these results: Tags and fused reporters may be left off the sequences shown.

One experiment deals with T1, Tbx1-TEV-ProteinA (UniProt P70323).
T1 sequence: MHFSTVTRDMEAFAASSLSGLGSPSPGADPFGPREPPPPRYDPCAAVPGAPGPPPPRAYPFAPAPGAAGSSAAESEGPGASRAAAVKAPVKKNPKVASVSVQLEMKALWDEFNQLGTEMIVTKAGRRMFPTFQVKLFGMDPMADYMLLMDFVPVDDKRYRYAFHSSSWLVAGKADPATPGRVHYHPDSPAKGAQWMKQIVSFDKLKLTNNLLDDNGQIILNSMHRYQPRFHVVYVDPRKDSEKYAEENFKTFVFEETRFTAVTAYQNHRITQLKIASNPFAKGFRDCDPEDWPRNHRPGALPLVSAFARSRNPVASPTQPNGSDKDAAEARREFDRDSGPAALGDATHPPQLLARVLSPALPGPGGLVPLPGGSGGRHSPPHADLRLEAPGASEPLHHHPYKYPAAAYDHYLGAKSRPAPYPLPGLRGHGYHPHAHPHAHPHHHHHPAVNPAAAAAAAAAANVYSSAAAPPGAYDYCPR
Description: native affinity purification (Protein A tag on IgG sepharose) with Western blot; nuclear extracts of P19-Tbx1-PA cells on IgG sepharose columns; Tbx1-containing complexes released by TEV cleavage; Western blot with anti-Baf60a and anti-p300.

Experiment [1] has as its target T2, Tbx1 (mouse (endogenous in P19Cl6)) (UniProt P70323).
T2 sequence: T1 sequence
The experiment in a line: co-IP; about 100 ug nuclear extract of P19Cl6 cells, endogenous proteins; IP with anti-Tbx1 antibody or rabbit IgG, Protein A/G PLUS agarose at 4°C overnight; 6 washes with IPP150 (10 mM Tris-HCl pH 8.0, 150 mM NaCl, 0.1% NP-40); Western blot.

The target of another experiment is T3, GST-Tbx1 (UniProt P70323).
T3 sequence: T1 sequence
The experiment in a line: pull-down; GST-Tbx1 pull-down from a lysate of P19Cl6 cells overexpressing Baf60a; ProFound Pull-Down GST Protein:Protein Interaction Kit (PIERCE); Western blot; only the target purified.

For the next experiment, the target named is T4, Tbx1-3HA (UniProt P70323).
T4 sequence: T1 sequence
The experiment in a line: co-IP; P19Cl6 cells transiently co-transfected with Tbx1-3HA and Baf60c-Flag; anti-HA immunoprecipitation kit; Western blot with anti-HA and anti-Flag. (In general: In western blotting, separated proteins are transferred to a membrane and probed.)

Experiment [2] addresses Baf60a (mouse (endogenous in E9.5 embryos)) (UniProt Q61466). Description: co-IP; nuclear extracts of E9.5 WT (and Tbx1-/- control) mouse embryos, endogenous proteins; IP with anti-Baf60a antibody, Western blot with anti-Tbx1.

On to Baf60a (from UniProt Q61466 1-515), for which the binding result (with Tbx1-TEV-ProteinA; in experiment [1]) was “binds” each time. As to “Baf60a (overexpressed) (from UniProt Q61466 1-515)”, the binding result with GST-Tbx1 is “binds”. Regarding Baf60c-Flag (from UniProt Q6P9Z1 1-483), the binding result with Tbx1-3HA is recorded as “no binding”. Baf155 (from UniProt P97496 1-1104): in experiment [1], the binding result is “no binding”.

B1: Tbx1 (protein, UniProt P70323 1-479)
chain: T1 sequence
Take B1: the binding entry in experiment [2] is “binds”.

B2: Setd7 (enzyme, UniProt Q8VHL1 1-366)
chain: MDSDDEVVEEAVEGHLDDDGLPHGFCTVTYSSTDRFEGNFVHGEKNGRGKFFFFDGSTLEGYYVDDALQGQGVYTYEDGGVLQGTYVDGELNGPAQEYDSDGRLIFKGQYKDNNRHGVCWIHYPDGGSLVGEVNEDGEMTGEKIAYVYPDQRTALYGKFIDGEMLEGKLATLMATEEGRPHFEVTSGSSVYHFDKSTSSCISSDALLPDPYESERVYVADSLISSAGEGLFSKVAVGPNTVMSFYNGVRITHQEVDSRDWALNGNTLSLDEETVIDVPEPYNHVSKYCASLGHKANHSFTPNCVYDLFVHPRFGPIKCIRTLRAVEAEEELTVAYGYDHSPPGKSGPEAPEWYQVELKAFQATQQK
On to B2, for which the binding entry in experiment [1] is “binds”.
